For 1 molecule, binding results are on record in US20060228358A1 (UCB, published 2006).

Amino acid sequences for entries named in this document (tags omitted). Residues count along the entry.
UniProt P01584, residues 117-269: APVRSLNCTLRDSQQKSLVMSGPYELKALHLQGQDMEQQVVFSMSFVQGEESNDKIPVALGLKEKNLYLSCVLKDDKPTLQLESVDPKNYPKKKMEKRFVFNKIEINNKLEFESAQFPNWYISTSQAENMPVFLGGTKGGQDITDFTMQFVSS

Results are given in words; binding and its absence hold for the method and conditions named. Some entries that bind do so weakly or less than the wild type.

The target of this assay is T1, recombinant human IL-1β (human, UniProt P01584 117-269).
T1 construct: Only the background speaks of the mature 17 kDa form; also called hIL-1β; interleukin-1β
The experiment in a line: BIAcore.

B1: CDR-grafted IC8 antibody gH2gL3 (antibody, V domains shown)
VH: EVQLVESGGGLVQPGGSLRLSCAASGFDFSRYDMSWVRQAPGKGLEWVAYISSGGGSTYFPDTVKGRFTISRDNAKNTLYLQMNSLRAEDTAMYYCARQNKKLTWFDYWGQGTLVTVSS
VL: DIQMTQSPSSLSASVGDRVTITCRTSGNIHNYLTWYQQKPGKAPQLLIYNAKTLADGVPSRFSGSGSGTQFTLTISSLQPEDFANYYCQHFWSLPFTFGQGTKVEIKR
notes: Human gamma-4 heavy and kappa light constant regions (pMRR14 and pMRR10), expressed in CHO-L761 cells
B1: the binding result is reported as “binds”.
